This passage reports binding results from PMC2785806.

These are yes or no findings as the source states them, for the method shown. Binding seen in cells or lysates may run through a third protein.

The assay has as its target RNA Pol II largest subunit, as precipitated with the 8WG16 monoclonal antibody against the carboxyl terminal domain (CTD) (Drosophila (endogenous in wild type embryos)), P04052. The experiment in a line: co-IP; test of dAGO2 with RNA Pol II CTD; no figure is cited; the RNA Pol II antibody used is not told. As to conditions: remark: other sources report otherwise.

B1: dAGO2, Q9VUQ5 1-1214 (protein)
chain: MGKKDKNKKGGQDSAAAPQPQQQQKQQQQRQQQPQQLQQPQQLQQPQQLQQPQQQQQQQPHQQQQQSSRQQPSTSSGGSRASGFQQGGQQQKSQDAEGWTAQKKQGKQQVQGWTKQGQQGGHQQGRQGQDGGYQQRPPGQQQGGHQQGRQGQEGGYQQRPPGQQQGGHQQGRQGQEGGYQQRPSGQQQGGHQQGRQGQEGGYQQRPPGQQQGGHQQGRQGQEGGYQQRPSGQQQGGHQQGRQGQEGGYQQRPPGQQQGGHQQGRQGQEGGYQQRPPGQQQGGHEQGRQGQEGGYQQRPSGQQQGGHQQGRQGQEGGYQQRPSGQQQGGHQQGRQGQEGGYQQRPSGQQQGGHQQGRQGQEGGYQQRPPGQQPNQTQSQGQYQSRGPPQQQQAAPLPLPPQPAGSIKRGTIGKPGQVGINYLDLDLSKMPSVAYHYDVKIMPERPKKFYRQAFEQFRVDQLGGAVLAYDGKASCYSVDKLPLNSQNPEVTVTDRNGRTLRYTIEIKETGDSTIDLKSLTTYMNDRIFDKPMRAMQCVEVVLASPCHNKAIRVGRSFFKMSDPNNRHELDDGYEALVGLYQAFMLGDRPFLNVDISHKSFPISMPMIEYLERFSLKAKINNTTNLDYSRRFLEPFLRGINVVYTPPQSFQSAPRVYRVNGLSRAPASSETFEHDGKKVTIASYFHSRNYPLKFPQLHCLNVGSSIKSILLPIELCSIEEGQALNRKDGATQVANMIKYAATSTNVRKRKIMNLLQYFQHNLDPTISRFGIRIANDFIVVSTRVLSPPQVEYHSKRFTMVKNGSWRMDGMKFLEPKPKAHKCAVLYCDPRSGRKMNYTQLNDFGNLIISQGKAVNISLDSDVTYRPFTDDERSLDTIFADLKRSQHDLAIVIIPQFRISYDTIKQKAELQHGILTQCIKQFTVERKCNNQTIGNILLKINSKLNGINHKIKDDPRLPMMKNTMYIGADVTHPSPDQREIPSVVGVAASHDPYGASYNMQYRLQRGALEEIEDMFSITLEHLRVYKEYRNAYPDHIIYYRDGVSDGQFPKIKNEELRCIKQACDKVGCKPKICCVIVVKRHHTRFFPSGDVTTSNKFNNVDPGTVVDRTIVHPNEMQFFMVSHQAIQGTAKPTRYNVIENTGNLDIDLLQQLTYNLCHMFPRCNRSVSYPAPAYLAHLVAARGRVYLTGTNRFLDLKKEYAKRTIVPEFMKKNPMYFV
For B1, the binding result is given as “no binding”.
